Patent US20230330180A1 (priority 2022, published 2023)

Assay: in vitro
Conditions: African green monkey

CCC(CC)COC(=O)[C@H](C)N[P@](=O)(OC[C@H]1O[C@@](C#N)(c2ccc3c(N)ncnn23)[C@H](O)[C@@H]1O)Oc1ccccc1 [Remdesivir, remdesivir]
CC50: > 50 µM
